Reference: PMC7642387
Results are given in words; binding and its absence hold for the method and conditions named. Binding seen in cells or lysates may run through a third protein. Some entries that bind do so weakly or less than the wild type.

Target: T1, Nup50 (human (endogenous in HeLa)) (UniProt Q9UKX7)
T1 sequence: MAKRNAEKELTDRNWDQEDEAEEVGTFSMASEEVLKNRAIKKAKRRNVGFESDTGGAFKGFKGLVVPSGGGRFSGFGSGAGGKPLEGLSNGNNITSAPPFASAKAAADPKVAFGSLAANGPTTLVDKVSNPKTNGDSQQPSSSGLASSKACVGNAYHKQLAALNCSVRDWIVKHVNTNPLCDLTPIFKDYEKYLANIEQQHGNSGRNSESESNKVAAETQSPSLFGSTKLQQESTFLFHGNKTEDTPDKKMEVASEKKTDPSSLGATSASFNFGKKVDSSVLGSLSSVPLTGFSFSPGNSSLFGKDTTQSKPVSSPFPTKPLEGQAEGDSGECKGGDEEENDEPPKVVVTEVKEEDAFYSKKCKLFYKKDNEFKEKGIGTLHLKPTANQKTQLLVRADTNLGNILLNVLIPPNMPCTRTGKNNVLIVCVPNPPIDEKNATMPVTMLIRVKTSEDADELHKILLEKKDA
Test: co-IP; HeLa lysate (200 µg) with Nup50 or control IgG antibody (3 µg) for 2 h at 4 °C, protein-A/G agarose overnight; blot with Nup50 or Sig-1R (Santa Cruz B5) antibody; both proteins endogenous

endogenous Sig-1R (sigma-1 receptor) (from UniProt Q99720-1 1-223)
binding: binds
